# Measured values from PubChem BioAssay AID1347076 (National Center for Advancing Translational Sciences (NCATS), 2019).
# The campaign covered roughly 400,000 compounds. About 13,000 (3.2%) were called active. Inconclusive means that the source gave no clear call. Such entries were picked first, then a sample of the others. Calls come from the whole dose curve; as a rule, active = well fitted cell-killing curve with a large enough effect; inconclusive = small, poorly fitted or top-dose-only effect, or effect the other way; inactive = flat fitted curve, though single readings scatter. Where the call is inconclusive, the potency comes from a doubtful curve fit.
# Assay: qHTS assay for MDR1-selective chemotherapeutics: Primary screen using the drug-selected MDR subline cells KB-V1; note: nearly all actives have a fitted effect of over 60% in size
# Conditions: KB-V1 MDR cells viability, CellTiter-Glo, 72 h; series mostly up to 46.1 µM
# How it was run: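 Cytotoxicity toward P-gp-expressing KB-V1 cells was determined as loss of CellTiter-Glo luminescence after 72 h at 37 degrees C. Compounds were tested in quantitative HTS format across a concentration range, with curves fitted to normalized data.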
# Potency is the fitted concentration of half-maximal effect.
row,Structure (SMILES),Potency
1,COc1ccc(NC2=C(c3ccc(C(F)(F)F)cc3)C(=O)c3ccccc32)cc1,inactive
2,O=C(CCCN1C(=O)c2ccccc2C1=O)Nc1c2c(nc3c1CCC3)CCC2,inactive
3,O=C1C(=C2SCCCS2)CC/C1=C\c1ccc(F)cc1,"inconclusive: 29.1 µM [cytotoxic, single point]"
4,O=C(Nc1cccc(C(F)(F)F)c1)C1CCCN(c2ncccn2)C1 (stereo unspecified),active: 16.4 µM
5,Cc1ccc(/C=N/NC(=S)N2CCOCC2)cc1,"inconclusive: 16.4 µM [cytotoxic, single point]"
6,O=C(NCC(=O)N(c1ccccc1)C(C(=O)NC1CCCC1)c1ccncc1)c1ccco1 (stereo unspecified),"inconclusive: 29.1 µM [rising, single point]"
7,CC(=O)Nc1ccc(S(=O)(=O)N(C)CC(=O)OCC(=O)c2cc(C)n(-c3ccc4c(c3)OCO4)c2C)cc1,"inconclusive: 29.1 µM [cytotoxic, single point]"
8,COc1cccc(OC)c1C(=O)Nc1cc(C)nn1-c1nc2ccccc2[nH]1,active: 3.26 µM
9,COC(=O)C1=C(O)/C(=C\c2ccc(OCC(=O)Nc3ccc(OC)cc3)cc2)N=C1C,"inconclusive: 11.6 µM [rising, partial curve]"
10,FC(F)(F)c1ccc(N2CCN(c3cc(-c4ccccc4)nc4ncnn34)CC2)nc1,"inconclusive: 10.3 µM [cytotoxic, partial curve]"
11,Cc1ccsc1C(=O)N1CCCC(C(=O)c2cc(F)ccc2F)C1 (stereo unspecified),"inconclusive: 16.4 µM [cytotoxic, single point]"
12,Cc1cccc(C(=O)NCC(=O)OCC(=O)NC2CCCCC2)c1,inactive
13,CN(C)C(=O)C#Cc1ccccc1,inactive
14,CN(C)C(=O)c1ccc(NC(=O)c2ccc(-c3ccc(Cl)cc3)o2)cc1,active: 20.6 µM
15,COc1ccc(Br)cc1C1NC(c2ccc3c(c2)OCO3)=CC(c2ccccc2O)N1 (stereo unspecified),"inconclusive: 29.1 µM [rising, single point]"
16,CCOC(=O)C(=O)NNc1ccc(C)cc1,inactive
17,COc1ccc(S(=O)(=O)N2CCN(c3ccccc3OC)CC2)cc1,"inconclusive: 20.6 µM [cytotoxic, single point]"
18,CCn1c(=NC(=O)c2ccc(S(=O)(=O)N3CCOCC3)cc2)sc2cccc(OC)c21,"inconclusive: 14.6 µM [cytotoxic, partial curve]"
19,O=S(=O)(c1ccc(NC(=S)N/N=C/c2c3ccccc3cc3ccccc23)cc1)N1CCOCC1,"inconclusive: 3.26 µM [cytotoxic, partial curve, poor fit]"
20,CCOC(=O)c1ccc(NC(=O)c2cn3c4c(ccc(Cl)c4c2=O)OC(C)C3)cc1 (stereo unspecified),"inconclusive: 29.1 µM [rising, single point]"
21,CN(C)c1ccc(/C=C/c2cc[n+]([O-])c3ccccc23)cc1,"inconclusive: 18.4 µM [rising, partial curve, poor fit]"
22,COc1ccc(OC)c(NC(=O)CCOc2cccc(C)c2)c1,"inconclusive: 20.6 µM [cytotoxic, single point]"
23,Cn1c(-c2csc(-c3ccccc3)n2)n[nH]c1=S,"inconclusive: 29.1 µM [cytotoxic, single point]"
24,CN(c1cc2c(c3c1ccn3C)C1CCC2O1)C1CCCCC1 (stereo unspecified),"inconclusive: 29.1 µM [cytotoxic, single point]"

row,Structure (SMILES),Potency
1,O=C(CN1CCN(S(=O)(=O)c2ccc(F)cc2)CC1)Nc1ccc(Cl)cn1,"inconclusive: 32.6 µM [rising, single point]"
2,O=C(NC1=NCCS1)C1CC2CCC1C2 (stereo unspecified),"inconclusive: 20.6 µM [rising, single point]"
3,Cc1ccc(-c2nc(C)c(CCNC(=O)c3ccccc3Br)s2)cc1,"inconclusive: 11.6 µM [cytotoxic, partial curve]"
4,CCCNC(=O)c1cc2c(c(-c3cccc(-c4ccccc4F)c3)n1)[C@@H](CCO)N(C(=O)CC1CC1)C2,active: 23.1 µM
5,COCCn1c(C)cc(C(=O)COC(=O)CNC(=O)c2ccco2)c1C,"inconclusive: 29.1 µM [rising, single point]"
6,COc1cccc(CC(=O)N[C@@H](CCSC)c2nc3ccccc3[nH]2)c1,"inconclusive: 32.6 µM [cytotoxic, single point]"
7,CCc1nn(C(CC)C(=O)NCc2ccc(OC)c(OC)c2)c(=O)c2cc3oc(C)cc3n12 (stereo unspecified),"inconclusive: 3.66 µM [cytotoxic, full curve]"
8,COc1cc(/C=C(\C#N)c2nc3ccc(C)cc3[nH]2)ccc1OCc1ccc(C)cc1,inactive
9,COc1cc(-c2nn3c(-c4cc(-c5ccccc5)n[nH]4)nnc3s2)cc(OC)c1OC,"inconclusive: 20.6 µM [cytotoxic, single point]"
10,CS(=O)(=O)c1ccc(NC(=O)CCN2C(=O)C3CC=CCC3C2=O)cc1 (stereo unspecified),"inconclusive: 18.4 µM [rising, single point]"
11,CCOc1ccc(C(=O)CCC(=O)N2CCC(C(=O)OC)CC2)cc1,inactive
12,COc1ccc(CCC(=O)Nc2ccc(C)c([N+](=O)[O-])c2)cc1,active: 20.6 µM
13,Brc1ccc(CNc2nc3ccccc3n2CCN2CCCCC2)cc1,inactive
14,CCOC(=O)CN(C(=O)Cn1nnc(-c2ccc(C)cc2)n1)C(CC)C(=O)NC1CCCC1 (stereo unspecified),active: 4.11 µM
15,OC(COCc1ccccc1)CN1CCN(c2ccccc2F)CC1 (stereo unspecified),"inconclusive: 35.5 µM [cytotoxic, single point]"
16,CC(=O)c1c(C)[nH]c(C(=O)Nc2cccc(S(=O)(=O)N3CCCCC3)c2)c1C,"inconclusive: 29.1 µM [cytotoxic, single point]"
17,O=S(=O)(c1ccccc1Cl)N1CCC(O)(c2ccc3c(c2)OCO3)CC1,"inconclusive: 29.1 µM [cytotoxic, single point]"
18,O=C(N/N=C/c1cn(-c2ccccc2)nc1-c1cc2ccccc2o1)c1cccnc1,"inconclusive: 29.1 µM [cytotoxic, single point]"
19,COc1cccc(CNC(=O)c2cnc3c(-c4ccc(F)cc4)c(C)nn3c2C)c1,inactive
20,CCOc1ccc(S(=O)(=O)Nc2ccccc2SC)cc1,active: 16.4 µM
21,O=C(N(c1ccccc1)c1ccccc1)N(c1ccccc1)c1ccccc1,"inconclusive: 14.6 µM [cytotoxic, single point]"
22,O=C(CSc1nnc(-c2ccco2)o1)N1c2ccccc2CCc2ccccc21,"inconclusive: 29.1 µM [cytotoxic, single point]"
23,CCCc1nnc(NC(=O)CCC(=O)N2CCN(c3nc(C)cc(C)n3)CC2)s1,inactive
24,COc1ccc(Sc2nc(-c3ccccn3)ncc2OC)cc1,"inconclusive: 14.6 µM [cytotoxic, partial curve, poor fit]"

row,Structure (SMILES),Potency
1,CC(/C=N/NC(=O)c1cc(-c2ccc(Cl)cc2)nc2ccccc12)=C\c1ccco1,active: 0.92 µM
2,O=C(CSc1nc(O)cc(=O)[nH]1)N1CCCc2ccccc21,"inconclusive: 29.1 µM [rising, single point]"
3,COc1ccc(CC(=O)N2CCc3cc(OC)c(OC)cc3C2COc2ccc(F)cc2)cc1 (stereo unspecified),active: 7.31 µM
4,CC1CC(C)CN(C(=O)COC(=O)CCC(=O)c2cccs2)C1 (stereo unspecified),inactive
5,COc1ccc(N2CCN(S(=O)(=O)c3ccc(F)c(C(=O)Nc4ccccc4Cl)c3)CC2)cc1,inactive
6,Cc1cc(C)cc(NC(=O)CN2CCN(c3ccccc3)CC2)c1,inactive
7,COc1cc2c(cc1OC)C(c1cccc(Cl)c1)CC(=O)N2 (stereo unspecified),inactive
8,CCCOc1cccc(C2C(C(=O)c3ccco3)=C(O)C(=O)N2c2nnc(C)s2)c1 (stereo unspecified),"inconclusive: 29.1 µM [rising, single point]"
9,CN(C)c1ccc(Nc2ncnc3ccc(Br)cc23)cc1,"inconclusive: 18.4 µM [rising, single point]"
10,O=C1NC(O)CCN1C1CC(O)C(CO)O1 (stereo unspecified),inactive
11,Cc1cc(CNC(=O)COc2ccc(F)cc2Cl)cc(C)c1O,"inconclusive: 18.4 µM [cytotoxic, single point]"
12,Cc1ccc(CNC(=O)Cc2ccc(-n3c(=O)[nH]c4ccsc4c3=O)cc2)cc1,inactive
13,Cc1cc(C(=O)CSc2nc3ccccc3o2)c(C)n1C1CC1,"inconclusive: 29.1 µM [cytotoxic, single point]"
14,O=C(O)CC1Cc2ccccc2C1C(=O)O (stereo unspecified),inactive
15,COc1cc(CC(NC(C)=O)C(=O)NC2CCN(C(=O)Nc3ccccc3Cl)CC2)cc(OC)c1 (stereo unspecified),"inconclusive: 20.6 µM [rising, single point]"
16,CCOC(=O)c1sc(=S)n(-c2ccccc2Cl)c1SC,"inconclusive: 18.4 µM [cytotoxic, single point]"
17,CCN(CC)C1=N/C(=C\c2ccco2)C(=O)N1c1ccccc1,"inconclusive: 10.3 µM [cytotoxic, partial curve]"
18,COc1cccc(OC)c1C(=O)Nc1sc2c(c1C(N)=O)CCN(Cc1ccccc1)C2,inactive
19,CCOc1cccc(C(=O)Nc2cccc(C(C)=O)c2)c1,"inconclusive: 16.4 µM [cytotoxic, single point]"
20,COc1cc2ccccc2cc1C(=O)N/N=C/c1ccc2c(c1)OCO2,"inconclusive: 29.1 µM [cytotoxic, single point]"
21,O=C(C[C@@H]1C/C=C\C[C@H](Cc2ccc(F)cc2)C(=O)OCCNC1=O)NCCO,inactive
22,CC(C)COc1cccc(C(=O)Nc2ccc(S(=O)(=O)N3CCOCC3)cc2)c1,"inconclusive: 29.1 µM [cytotoxic, single point]"
23,O=C(NC(=S)Nc1ccc(NC(=O)c2cccs2)cc1)c1cc2ccccc2o1,"inconclusive: 1.16 µM [cytotoxic, full curve, poor fit]"

# Reprinted at random: 2 compounds from above
row,Structure (SMILES),Potency
13,Cc1cc(C(=O)CSc2nc3ccccc3o2)c(C)n1C1CC1,"inconclusive: 29.1 µM [cytotoxic, single point]"
17,CCN(CC)C1=N/C(=C\c2ccco2)C(=O)N1c1ccccc1,"inconclusive: 10.3 µM [cytotoxic, partial curve]"
